Publication PMC6005158
No constants are given. Whether binding was seen depends on the method and setting. In cells and extracts the contact can be indirect. A result given as binding can be weak or reduced; the word gives no strength. Where a sequence is shown, tags or fusion partners need not be part of it.

Molecular target: T1, Danio rerio STING (DrSTING), Myc-tagged (zebrafish (Danio rerio)) (UniProt E7F4N7)
T1 sequence: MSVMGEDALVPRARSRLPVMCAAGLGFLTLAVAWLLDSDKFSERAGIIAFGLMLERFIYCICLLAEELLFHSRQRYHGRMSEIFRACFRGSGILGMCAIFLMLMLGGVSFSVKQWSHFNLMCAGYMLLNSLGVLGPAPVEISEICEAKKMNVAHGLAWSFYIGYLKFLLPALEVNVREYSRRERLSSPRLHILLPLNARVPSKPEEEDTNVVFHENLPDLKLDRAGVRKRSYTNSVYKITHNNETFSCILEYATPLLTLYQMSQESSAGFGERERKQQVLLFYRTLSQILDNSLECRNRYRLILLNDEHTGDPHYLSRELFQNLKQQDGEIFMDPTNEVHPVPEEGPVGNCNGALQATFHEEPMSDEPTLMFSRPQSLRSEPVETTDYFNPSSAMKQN
Experiment: co-IP; HEK293T co-transfected with Myc-DrSTING and GFP-DrSTAT6 without Flag-DrDDX41 (empty vector); lysates immunoprecipitated with anti-Myc mAb and protein A-agarose, blotted with anti-tag antibodies

Substance: Danio rerio STAT6 (DrSTAT6), GFP-tagged (zebrafish (Danio rerio))
- binding: binds weakly
